Assay results as given in the supplement of paper PMC12819154, “High-throughput peptide-centric local stability assay extends protein–ligand identification to membrane proteins, tissues and bacteria” (Nature Structural & Molecular Biology, 2025).
This is one part of the list. Small differences around the control level are noise.

Sequences of proteins named here, by UniProt entry; tags and fusion partners are left off. A change or cut given only in a name is not applied to a line headed by its entry.
UniProt Q96BX8: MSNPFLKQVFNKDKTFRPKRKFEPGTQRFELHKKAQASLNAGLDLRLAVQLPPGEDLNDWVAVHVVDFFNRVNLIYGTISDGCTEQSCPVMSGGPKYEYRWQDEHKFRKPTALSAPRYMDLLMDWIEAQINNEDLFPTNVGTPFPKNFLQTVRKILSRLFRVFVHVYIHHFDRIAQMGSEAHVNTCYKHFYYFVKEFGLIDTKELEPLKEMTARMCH
UniProt Q92698: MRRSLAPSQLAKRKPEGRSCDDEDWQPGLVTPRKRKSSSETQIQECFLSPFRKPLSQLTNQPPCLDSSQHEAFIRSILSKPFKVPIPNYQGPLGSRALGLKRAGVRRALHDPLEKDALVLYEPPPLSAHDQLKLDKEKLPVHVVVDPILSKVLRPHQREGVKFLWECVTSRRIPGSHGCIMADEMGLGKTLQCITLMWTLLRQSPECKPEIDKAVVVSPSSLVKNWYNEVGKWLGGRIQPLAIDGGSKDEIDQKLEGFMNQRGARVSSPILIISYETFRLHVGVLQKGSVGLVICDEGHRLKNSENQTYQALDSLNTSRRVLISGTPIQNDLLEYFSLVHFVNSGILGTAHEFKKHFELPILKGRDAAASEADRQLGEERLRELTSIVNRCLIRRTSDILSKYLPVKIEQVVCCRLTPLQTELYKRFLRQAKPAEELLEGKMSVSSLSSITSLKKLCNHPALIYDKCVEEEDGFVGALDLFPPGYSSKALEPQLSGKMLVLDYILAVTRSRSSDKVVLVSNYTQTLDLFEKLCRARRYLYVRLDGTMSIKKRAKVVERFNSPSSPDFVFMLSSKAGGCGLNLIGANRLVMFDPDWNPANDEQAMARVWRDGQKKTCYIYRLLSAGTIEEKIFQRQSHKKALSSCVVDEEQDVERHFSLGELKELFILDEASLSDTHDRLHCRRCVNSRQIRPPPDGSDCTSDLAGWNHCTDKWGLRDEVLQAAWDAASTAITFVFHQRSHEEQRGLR
UniProt Q96AT9: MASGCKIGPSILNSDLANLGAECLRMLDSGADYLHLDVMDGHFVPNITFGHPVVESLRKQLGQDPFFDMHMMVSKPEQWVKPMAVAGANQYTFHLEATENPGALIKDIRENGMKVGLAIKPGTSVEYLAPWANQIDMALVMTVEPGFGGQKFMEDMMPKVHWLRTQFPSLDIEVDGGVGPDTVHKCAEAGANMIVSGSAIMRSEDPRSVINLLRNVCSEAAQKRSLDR
UniProt Q96B26, whole entry: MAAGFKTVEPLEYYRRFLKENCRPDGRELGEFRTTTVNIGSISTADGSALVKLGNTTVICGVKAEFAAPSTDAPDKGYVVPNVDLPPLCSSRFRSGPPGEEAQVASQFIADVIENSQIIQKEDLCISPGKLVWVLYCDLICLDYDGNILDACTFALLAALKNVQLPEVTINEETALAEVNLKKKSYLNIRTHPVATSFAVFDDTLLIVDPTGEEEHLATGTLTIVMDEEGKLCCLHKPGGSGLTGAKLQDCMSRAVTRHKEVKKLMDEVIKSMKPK
UniProt Q96ER3: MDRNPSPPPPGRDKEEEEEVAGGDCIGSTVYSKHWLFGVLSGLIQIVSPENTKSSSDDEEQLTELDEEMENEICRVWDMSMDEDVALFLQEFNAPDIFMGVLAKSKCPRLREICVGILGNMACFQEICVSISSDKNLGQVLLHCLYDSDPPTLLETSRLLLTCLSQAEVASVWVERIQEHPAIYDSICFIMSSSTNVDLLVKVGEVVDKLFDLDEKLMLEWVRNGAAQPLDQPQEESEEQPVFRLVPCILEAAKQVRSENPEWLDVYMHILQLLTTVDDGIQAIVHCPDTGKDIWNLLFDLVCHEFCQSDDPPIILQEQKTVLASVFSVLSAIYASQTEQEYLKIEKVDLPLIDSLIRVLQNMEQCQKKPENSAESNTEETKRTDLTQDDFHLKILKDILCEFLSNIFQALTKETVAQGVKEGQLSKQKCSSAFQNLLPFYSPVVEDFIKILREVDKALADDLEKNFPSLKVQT
UniProt Q96EP0: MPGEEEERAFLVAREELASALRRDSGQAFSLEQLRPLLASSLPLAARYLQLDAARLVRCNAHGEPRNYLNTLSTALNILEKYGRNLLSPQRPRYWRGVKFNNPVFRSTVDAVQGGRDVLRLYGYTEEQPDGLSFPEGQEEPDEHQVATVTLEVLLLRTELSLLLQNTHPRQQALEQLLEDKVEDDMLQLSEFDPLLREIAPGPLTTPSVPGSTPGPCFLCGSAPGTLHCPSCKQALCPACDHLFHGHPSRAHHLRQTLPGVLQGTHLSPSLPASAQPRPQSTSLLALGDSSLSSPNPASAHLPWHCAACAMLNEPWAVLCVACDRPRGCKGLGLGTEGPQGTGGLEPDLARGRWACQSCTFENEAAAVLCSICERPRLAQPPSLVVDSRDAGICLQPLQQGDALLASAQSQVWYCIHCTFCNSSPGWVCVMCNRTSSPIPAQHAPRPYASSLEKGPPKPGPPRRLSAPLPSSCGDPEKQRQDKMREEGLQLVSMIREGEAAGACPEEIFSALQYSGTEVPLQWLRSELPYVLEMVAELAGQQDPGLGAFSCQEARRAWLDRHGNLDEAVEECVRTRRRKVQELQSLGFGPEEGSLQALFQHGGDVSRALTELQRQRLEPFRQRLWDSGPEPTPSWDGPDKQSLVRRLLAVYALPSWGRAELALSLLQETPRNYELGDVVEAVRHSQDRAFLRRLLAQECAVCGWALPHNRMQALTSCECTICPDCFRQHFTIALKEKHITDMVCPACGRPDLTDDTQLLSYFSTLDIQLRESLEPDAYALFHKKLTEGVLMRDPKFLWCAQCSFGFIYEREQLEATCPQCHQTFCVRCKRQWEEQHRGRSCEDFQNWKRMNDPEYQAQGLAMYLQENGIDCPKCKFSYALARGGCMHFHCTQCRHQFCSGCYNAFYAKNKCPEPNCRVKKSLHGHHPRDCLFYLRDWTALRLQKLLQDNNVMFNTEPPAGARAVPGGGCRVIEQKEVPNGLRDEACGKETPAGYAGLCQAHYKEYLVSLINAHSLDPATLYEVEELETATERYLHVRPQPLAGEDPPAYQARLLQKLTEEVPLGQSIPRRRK
UniProt Q96EE3: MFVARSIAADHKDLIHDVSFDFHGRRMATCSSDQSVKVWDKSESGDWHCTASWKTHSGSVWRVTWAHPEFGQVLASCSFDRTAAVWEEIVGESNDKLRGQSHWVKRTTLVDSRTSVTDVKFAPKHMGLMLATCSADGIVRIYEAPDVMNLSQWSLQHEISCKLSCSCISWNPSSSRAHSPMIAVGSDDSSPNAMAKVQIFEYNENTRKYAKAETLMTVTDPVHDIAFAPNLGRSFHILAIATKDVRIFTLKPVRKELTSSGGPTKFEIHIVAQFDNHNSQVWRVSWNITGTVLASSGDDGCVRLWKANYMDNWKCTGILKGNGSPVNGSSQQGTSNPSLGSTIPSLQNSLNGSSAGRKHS
UniProt Q96DB5: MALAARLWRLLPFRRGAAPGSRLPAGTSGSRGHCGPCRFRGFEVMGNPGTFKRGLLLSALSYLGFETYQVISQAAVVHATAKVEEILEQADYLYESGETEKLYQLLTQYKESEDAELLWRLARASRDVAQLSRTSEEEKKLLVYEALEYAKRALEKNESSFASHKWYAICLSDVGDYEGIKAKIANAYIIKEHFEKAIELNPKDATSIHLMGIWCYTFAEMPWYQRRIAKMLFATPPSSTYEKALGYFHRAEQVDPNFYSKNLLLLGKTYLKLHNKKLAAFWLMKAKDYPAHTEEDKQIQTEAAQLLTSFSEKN
UniProt Q96BZ9: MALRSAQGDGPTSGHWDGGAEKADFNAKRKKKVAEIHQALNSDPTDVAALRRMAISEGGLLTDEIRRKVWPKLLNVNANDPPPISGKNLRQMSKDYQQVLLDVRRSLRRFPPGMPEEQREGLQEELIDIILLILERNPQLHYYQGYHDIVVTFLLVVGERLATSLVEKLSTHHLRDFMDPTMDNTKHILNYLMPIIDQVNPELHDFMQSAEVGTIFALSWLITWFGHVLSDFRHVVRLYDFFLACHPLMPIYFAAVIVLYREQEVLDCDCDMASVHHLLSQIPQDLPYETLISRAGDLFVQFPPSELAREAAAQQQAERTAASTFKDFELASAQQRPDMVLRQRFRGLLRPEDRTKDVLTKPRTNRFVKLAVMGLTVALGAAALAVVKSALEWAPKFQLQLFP
UniProt Q92839: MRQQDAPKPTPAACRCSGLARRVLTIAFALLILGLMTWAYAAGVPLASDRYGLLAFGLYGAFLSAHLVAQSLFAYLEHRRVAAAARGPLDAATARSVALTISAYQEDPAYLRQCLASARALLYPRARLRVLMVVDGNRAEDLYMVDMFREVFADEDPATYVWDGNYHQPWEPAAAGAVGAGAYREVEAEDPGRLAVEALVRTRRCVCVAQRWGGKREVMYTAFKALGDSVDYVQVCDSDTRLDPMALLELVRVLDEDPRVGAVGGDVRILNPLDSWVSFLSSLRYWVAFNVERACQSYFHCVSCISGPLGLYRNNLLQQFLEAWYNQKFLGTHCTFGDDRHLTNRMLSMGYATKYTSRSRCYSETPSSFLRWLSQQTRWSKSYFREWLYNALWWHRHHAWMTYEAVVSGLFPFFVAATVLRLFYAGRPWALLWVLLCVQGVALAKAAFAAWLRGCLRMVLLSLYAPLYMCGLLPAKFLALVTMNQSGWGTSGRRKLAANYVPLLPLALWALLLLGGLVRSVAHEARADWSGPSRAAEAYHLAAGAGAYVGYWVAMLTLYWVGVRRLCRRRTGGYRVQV
UniProt Q96C12: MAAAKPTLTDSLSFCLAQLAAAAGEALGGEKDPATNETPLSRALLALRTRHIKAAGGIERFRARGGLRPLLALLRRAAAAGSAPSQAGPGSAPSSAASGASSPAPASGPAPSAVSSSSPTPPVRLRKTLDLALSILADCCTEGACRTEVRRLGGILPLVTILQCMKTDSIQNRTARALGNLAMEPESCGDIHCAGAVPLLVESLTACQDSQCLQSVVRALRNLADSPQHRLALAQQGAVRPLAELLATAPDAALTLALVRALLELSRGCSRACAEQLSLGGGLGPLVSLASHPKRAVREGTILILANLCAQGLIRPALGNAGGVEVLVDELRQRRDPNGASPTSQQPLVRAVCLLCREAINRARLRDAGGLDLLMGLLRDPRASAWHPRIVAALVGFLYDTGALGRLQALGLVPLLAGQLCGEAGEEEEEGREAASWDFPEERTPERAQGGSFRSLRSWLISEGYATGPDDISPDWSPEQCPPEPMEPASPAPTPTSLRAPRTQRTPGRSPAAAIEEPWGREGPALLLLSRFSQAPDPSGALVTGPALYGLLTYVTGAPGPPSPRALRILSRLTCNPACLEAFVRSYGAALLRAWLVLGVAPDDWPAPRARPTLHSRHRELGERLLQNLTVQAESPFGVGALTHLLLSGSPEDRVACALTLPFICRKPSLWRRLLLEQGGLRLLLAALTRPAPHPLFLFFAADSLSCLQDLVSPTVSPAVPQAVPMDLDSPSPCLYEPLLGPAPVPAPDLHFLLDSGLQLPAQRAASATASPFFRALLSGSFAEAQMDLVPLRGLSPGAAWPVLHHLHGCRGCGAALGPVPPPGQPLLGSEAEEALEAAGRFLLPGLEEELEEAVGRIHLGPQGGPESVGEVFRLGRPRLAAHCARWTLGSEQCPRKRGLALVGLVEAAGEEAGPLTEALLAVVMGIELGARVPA
UniProt Q969E8: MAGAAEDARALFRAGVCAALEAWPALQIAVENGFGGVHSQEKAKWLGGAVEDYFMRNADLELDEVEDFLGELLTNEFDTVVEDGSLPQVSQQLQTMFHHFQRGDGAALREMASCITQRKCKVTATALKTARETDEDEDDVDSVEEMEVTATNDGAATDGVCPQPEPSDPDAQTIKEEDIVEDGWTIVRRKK
UniProt Q92902: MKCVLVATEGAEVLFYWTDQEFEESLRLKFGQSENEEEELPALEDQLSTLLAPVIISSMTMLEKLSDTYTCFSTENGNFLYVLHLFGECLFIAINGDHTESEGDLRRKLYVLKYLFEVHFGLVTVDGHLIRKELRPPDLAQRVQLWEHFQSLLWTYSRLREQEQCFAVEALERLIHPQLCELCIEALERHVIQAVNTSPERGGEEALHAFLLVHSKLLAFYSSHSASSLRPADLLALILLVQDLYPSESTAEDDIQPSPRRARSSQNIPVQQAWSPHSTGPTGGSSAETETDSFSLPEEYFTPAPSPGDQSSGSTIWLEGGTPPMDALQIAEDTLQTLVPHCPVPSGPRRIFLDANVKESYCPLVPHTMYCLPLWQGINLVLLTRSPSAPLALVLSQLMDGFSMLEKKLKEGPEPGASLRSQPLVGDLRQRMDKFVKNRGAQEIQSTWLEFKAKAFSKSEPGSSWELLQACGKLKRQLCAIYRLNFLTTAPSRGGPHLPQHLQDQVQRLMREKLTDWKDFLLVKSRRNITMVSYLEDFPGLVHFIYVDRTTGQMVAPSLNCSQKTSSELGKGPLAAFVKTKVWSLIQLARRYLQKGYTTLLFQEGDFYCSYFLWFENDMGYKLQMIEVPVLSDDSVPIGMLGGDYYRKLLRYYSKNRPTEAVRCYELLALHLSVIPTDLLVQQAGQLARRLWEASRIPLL

compound: Cc1nc(Nc2ncc(C(=O)Nc3c(C)cccc3Cl)s2)cc(N2CCN(CCO)CC2)n1 [dasatinib]; assay: log2 fold change of tryptic peptide abundance, ligand vs vehicle (limited proteolysis) (log2 ratio); higher = more trypsin-susceptible (destabilized); conditions: ligand concentration: 5 uM; sample: K562 cleared lysate

Question: For “UniProt Q96BX8 (peptide sequence: IAQMGSEAHVNTCYK, peptide start residue: 174)”, which log2 fold change is on record?
Answer: 0.597

Question: Which log2 fold change does the source give for “RAD50 (peptide sequence: KQMEKDNSELEEK, peptide start residue: 280) (UniProt Q92878)” here?
Answer: 1.29

Question: “RAD54L (peptide sequence: ELTSIVNR, peptide start residue: 383) (UniProt Q92698)” was tested. Which log2 fold change did it give?
Answer: -0.543

Question: “UniProt Q96AX9 (peptide sequence: MAEFIGQTGTVHR, peptide start residue: 286)” was tested. Which log2 fold change did it give?
Answer: 0.511

Question: With “RPE (peptide sequence: NVCSEAAQK, peptide start residue: 215) (UniProt Q96AT9)” as the target, how does the log2 fold change read?
Answer: 0.284

Question: Which log2 fold change does the source give for “EXOSC8 (peptide sequence: LGNTTVICGVK, peptide start residue: 53) (UniProt Q96B26)” here?
Answer: 0.289

Question: “MRPL38 (peptide sequence: TQQLLER, peptide start residue: 100) (UniProt Q96DV4)” was tested. Which log2 fold change did it give?
Answer: 0.217

Question: “TRIM44 (peptide sequence: VIADEEQK, peptide start residue: 269) (UniProt Q96DX7)” was tested. Which log2 fold change did it give?
Answer: 0.157

Question: For “SAAL1 (peptide sequence: VGEVVDKLFDLDEK, peptide start residue: 203) (UniProt Q96ER3)”, which log2 fold change is on record?
Answer: 0.0935

Question: How did the log2 fold change turn out when “RNF31 (peptide sequence: SCEDFQNWK, peptide start residue: 840) (UniProt Q96EP0)” was run?
Answer: -0.252

Question: With “CCDC124 (peptide sequence: AKSHLEVPLEENVNRR, peptide start residue: 120) (UniProt Q96CT7)” as the target, how does the log2 fold change read?
Answer: -0.25

Question: How did the log2 fold change turn out when “UniProt Q96D53 (peptide sequence: EFGTEFTDHYIEVVK, peptide start residue: 392)” was run?
Answer: -0.279

Question: For “SEH1L (peptide sequence: AHSPMIAVGSDDSSPNAMAK, peptide start residue: 177) (UniProt Q96EE3)”, which log2 fold change is on record?
Answer: -0.518

Question: With “UniProt Q96DB5 (peptide sequence: ALEKNESSFASHK, peptide start residue: 153)” as the target, how does the log2 fold change read?
Answer: -0.351

Question: Which log2 fold change does the source give for “TBC1D20 (peptide sequence: MAISEGGLLTDEIRR, peptide start residue: 53) (UniProt Q96BZ9)” here?
Answer: 0.288

Question: With “SGTB (peptide sequence: SFSSSAEEHS, peptide start residue: 295) (UniProt Q96EQ0)” as the target, how does the log2 fold change read?
Answer: -0.028

Question: With “USP9X (peptide sequence: IELFVGGELIDPADDRK, peptide start residue: 932) (UniProt Q93008)” as the target, how does the log2 fold change read?
Answer: 0.164

Question: With “TANK (peptide sequence: KNNLTLDQPQDK, peptide start residue: 86) (UniProt Q92844)” as the target, how does the log2 fold change read?
Answer: -0.175

Question: “ADAT3 (peptide sequence: LLKEVSALHPLPAQPHLKR, peptide start residue: 59) (UniProt Q96EY9)” was tested. Which log2 fold change did it give?
Answer: -0.49

Question: For “UniProt Q96EY4 (peptide sequence: KICANDAIPK, peptide start residue: 160)”, which log2 fold change is on record?
Answer: 0.134

Question: “NUP205 (peptide sequence: YLYHGNTNPELAFESAK, peptide start residue: 902) (UniProt Q92621)” was tested. Which log2 fold change did it give?
Answer: -0.199

Question: Which log2 fold change does the source give for “UniProt Q92839 (peptide sequence: LAVEALVR, peptide start residue: 194)” here?
Answer: -0.0357

Question: Which log2 fold change does the source give for “CENPT (peptide sequence: AVDVGAFLR, peptide start residue: 216) (UniProt Q96BT3)” here?
Answer: -0.146

Question: How did the log2 fold change turn out when “UniProt Q969H0 (peptide sequence: LDHGSEVR, peptide start residue: 172)” was run?
Answer: -0.1

Question: Which log2 fold change does the source give for “NMD3 (peptide sequence: KNVNIYR, peptide start residue: 454) (UniProt Q96D46)” here?
Answer: -0.363

Question: How did the log2 fold change turn out when “AIDA (peptide sequence: EAQAQHNNSEFTEEQKK, peptide start residue: 45) (UniProt Q96BJ3)” was run?
Answer: 0.124

Question: Which log2 fold change does the source give for “SH3KBP1 (peptide sequence: KPPPPSAPVIK, peptide start residue: 339) (UniProt Q96B97)” here?
Answer: 1.15

Question: For “TAF15 (peptide sequence: ENYSHHTQDDR, peptide start residue: 154) (UniProt Q92804)”, which log2 fold change is on record?
Answer: 0.267

Question: “NECTIN2 (peptide sequence: YHELPTLEER, peptide start residue: 454) (UniProt Q92692)” was tested. Which log2 fold change did it give?
Answer: 0.246

Question: “SGK3 (peptide sequence: RAGLNEFIQNLVR, peptide start residue: 91) (UniProt Q96BR1)” was tested. Which log2 fold change did it give?
Answer: 0.163

Question: For “CYFIP2 (peptide sequence: EFFLELTMGRR, peptide start residue: 625) (UniProt Q96F07)”, which log2 fold change is on record?
Answer: 0.265

Question: How did the log2 fold change turn out when “UBE2W (peptide sequence: WWYHDDTC, peptide start residue: 144) (UniProt Q96B02)” was run?
Answer: -0.0714

Question: For “TFG (peptide sequence: NRPPFGQGYTQPGPGYR, peptide start residue: 384) (UniProt Q92734)”, which log2 fold change is on record?
Answer: -0.0276

Question: “RILPL2 (peptide sequence: ELMALGSDPR, peptide start residue: 51) (UniProt Q969X0)” was tested. Which log2 fold change did it give?
Answer: 0.194

Question: “ARMC5 (peptide sequence: EGPALLLLSR, peptide start residue: 522) (UniProt Q96C12)” was tested. Which log2 fold change did it give?
Answer: 0.122

Question: How did the log2 fold change turn out when “TSR2 (peptide sequence: EEDIVEDGWTIVRR, peptide start residue: 176) (UniProt Q969E8)” was run?
Answer: -0.324

Question: With “HPS1 (peptide sequence: EKLTDWKDFLLVK, peptide start residue: 512) (UniProt Q92902)” as the target, how does the log2 fold change read?
Answer: -0.4
